From US12691100B2, “NMT inhibitor treatment of a senescence-associated disease or disorder of the liver” (Imperial College Innovations Limited, priority 2020, dated 2026)
Some results were stated once for a whole list of compounds, not compound by compound.

Columns and labels:
MCF7 cancer cells = test: Senolytic survival assay, chemotherapy-induced senescence in cancer cells; type: cell-based; conditions: doxorubicin 200 nM, etoposide 2 μM or cisplatin 10 μM, or DMSO; replenished after 72 h, 48 h more; FIGS. 9A-C
IMR90 cells = test: Senolytic survival assay, bleomycin-induced senescence; type: cell-based, human; conditions: bleomycin or DMSO; compounds added 7 days after induction; read 7 days later; FIGS. 2A-C
[1] = test system: SKHEP1 liver cancer cells; test: Senolytic survival assay, etoposide-induced senescence in cancer cells; type: cell-based; conditions: etoposide or DMSO; compounds added 6 days after induction; read 7 days later; FIGS. 4A-C
IMR90 ER:RAS cells = test: Senolytic survival assay, oncogene-induced senescence (high-throughput microscopy); type: cell-based, human; conditions: 100 nM 4OHT (OIS) or DMSO; compounds added 7 days after induction; read 7 days later, replenished after 3 days; FIGS. 1A-C

Compound | Survival, senescent versus control cells (MCF7 cancer cells) | Survival (cell counts relative to DMSO), senescent versus control cells (IMR90 cells) | Survival (cell counts relative to DMSO), senescent versus control cells [1] | Survival (cell counts relative to DMSO), senescent versus control cells (IMR90 ER:RAS cells)
Cc1nn(C)c(C)c1CCOc1c(-c2ccc3c(c2)c(CN(C)C)nn3C)ccc(F)c1F [Compound 1, 1-(5-(3,4-difluoro-2-(2-(1,3,5-trimethyl-1H-pyrazol-4-yl)ethoxy)phenyl)-1-methyl-1H-indazol-3-yl)-N,N-dimethylmethanamine] | selectively eliminate MCF7 cells induced to senescence by doxorubicin, etoposide or cisplatin over non-senescent cells | selectively kill senescent cells induced to senescence by bleomycin | preferentially kill cancer cells that undergo senescence after being induced to senescence with etoposide | preferentially kill cells undergoing OIS
Cc1c(NS(=O)(=O)c2c(Cl)cc(-c3ccnc(N4CCNCC4)c3)cc2Cl)c(CC(C)C)nn1C [Compound 2] | selectively eliminate MCF7 cells induced to senescence by doxorubicin, etoposide or cisplatin over non-senescent cells | – | – | –
Cc1c(CCOc2cc(Cl)ccc2-c2ccc3ncc(CCN)n3c2)c(C(=O)N(C)C)nn1C [Compound 3, 4-(2-{2-[3-(2-aminoethyl)imidazo[1,2-a]pyridin-6-yl]-5-chlorophenoxy}ethyl)-N,N,1,5-tetramethyl-1H-pyrazole-3-carboxamide] | selectively eliminate MCF7 cells induced to senescence by doxorubicin, etoposide or cisplatin over non-senescent cells | selectively kill senescent cells induced to senescence by bleomycin | preferentially kill cancer cells that undergo senescence after being induced to senescence with etoposide | preferentially kill cells undergoing OIS
